One substance from paper PMC8565326, “Structural dissection of sequence recognition and catalytic mechanism of human LINE-1 endonuclease” can be followed below.

Results are given in words; binding and its absence hold for the method and conditions named.

The assay has as its target LINE-1 endonuclease (endonuclease domain of human LINE-1 ORF2p), wild type (human) (UniProt O00370). The experiment in a line: AUC; sedimentation velocity, 20°C, 35 000 rpm, 25 mM HEPES pH 7.5, 100 mM NaCl, 1 mM TCEP, absorbance at 280 nm, continuous c(s) distribution model (SEDFIT); both purified.

With “LINE-1 endonuclease (endonuclease domain of human LINE-1 ORF2p), wild type (from UniProt O00370 1-238) (domain or fragment)”, the binding entry is “no binding (tested: sub-millimolar concentrations)”.
